Data from publication doi:10.1101/2022.02.05.479252.
These are yes or no findings as the source states them, for the method shown. Some binding calls cover weakened binding; strength is not graded here.

The chains behind the UniProt entries cited, without tags or fusion partners. Residues count along the entry.
UniProt P22290, residues 211-525: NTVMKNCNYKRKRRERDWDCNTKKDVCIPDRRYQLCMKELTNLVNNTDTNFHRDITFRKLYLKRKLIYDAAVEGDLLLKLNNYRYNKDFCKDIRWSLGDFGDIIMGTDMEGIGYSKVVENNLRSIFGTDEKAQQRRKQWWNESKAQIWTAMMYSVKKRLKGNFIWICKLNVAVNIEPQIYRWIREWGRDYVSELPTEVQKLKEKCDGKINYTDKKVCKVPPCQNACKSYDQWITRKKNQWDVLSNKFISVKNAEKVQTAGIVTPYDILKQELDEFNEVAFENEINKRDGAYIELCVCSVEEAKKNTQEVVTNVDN

Biological target: T1, Duffy antigen/Receptor for chemokines (DARC) (UniProt Q16570)
T1 sequence: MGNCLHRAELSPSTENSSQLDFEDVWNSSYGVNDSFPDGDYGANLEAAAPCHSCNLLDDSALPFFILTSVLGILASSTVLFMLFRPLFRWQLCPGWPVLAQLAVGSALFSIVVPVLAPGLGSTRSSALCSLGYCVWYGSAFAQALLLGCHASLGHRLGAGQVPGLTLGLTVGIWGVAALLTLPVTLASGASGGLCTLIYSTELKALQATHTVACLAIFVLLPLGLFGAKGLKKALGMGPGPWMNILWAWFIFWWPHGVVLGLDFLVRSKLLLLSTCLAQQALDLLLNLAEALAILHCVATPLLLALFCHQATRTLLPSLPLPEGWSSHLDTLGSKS
Assay: flow cytometry on cells

biotinylated BirA-tagged Sal-1 Duffy binding protein region II (DBP-II) (from UniProt P22290 211-525) (domain or fragment)
binding: binds
